In paper PMC5654745:
No constants are given. Whether binding was seen depends on the method and setting. In cells and extracts the contact can be indirect. Some binding calls cover weakened binding; strength is not graded here. Sequences can lack the tags named with a protein.

B1: Sdc1 (protein, UniProt Q03323 1-175)
chain: MNESENSPQHNEVTVPMVEDTSSNADIPMEQIQREDNKNYDKHDNECFDMNGNHNNNSDNLQFDSVPSSATKDLKNIKSVTNQNVKIEESSSTNSVIEESSEPKISKLENVNLAATVGGSQTRKYLNTNVTPHLLAGMRLIAVQQPEDPLRVLGEYLIEQSNILKSGEKESNASK
B2: Spp1 (protein, UniProt Q03012 1-353)
chain: MSLPQWCPPHSTLKRNPTTGEDVYCICKRPDYGELMVGCDGCDDWFHFTCLHIPEQFKDLVFSFYCPYCQAGITGKNKDAIINGEGSLPKTLWKRKCRISDCYKPCLQDSKYCSEEHGREFVNDIWSRLKTDEDRAVVKKMVEQTGHIDKFKKFGQLDFIDNNIVVKTDDEKEIFDQIVVRDMTLKTLEDDLQEVQEISLPLFKKKLELLEVYLGWLDNVYTEMRKLDDDAASHVECGKEDSKGTKRKKKKNSSRSRARKNICGYCSTYERIPCSVEEFVRDFGSNEEATKIHEVCTKWKCNRHLDWVSTNQEQYLQQIDSLESMQERLQHLIQARKKQLNIQYYEEILRRGL
B3: Swd2 (protein, UniProt P36104 1-329)
chain: MTTVSINKPNLLKFKHVKSFQPQEKDCGPVTSLNFDDNGQFLLTSSSNDTMQLYSATNCKFLDTIASKKYGCHSAIFTHAQNECIYSSTMKNFDIKYLNLETNQYLRYFSGHGALVNDLKMNPVNDTFLSSSYDESVRLWDLKISKPQVIIPSLVPNCIAYDPSGLVFALGNPENFEIGLYNLKKIQEGPFLIIKINDATFSQWNKLEFSNNGKYLLVGSSIGKHLIFDAFTGQQLFELIGTRAFPMREFLDSGSACFTPDGEFVLGTDYDGRIAIWNHSDSISNKVLRPQGFIPCVSHETCPRSIAFNPKYSMFVTADETVDFYVYDE
B4: Swd1 (protein, UniProt P39706 1-426)
chain: MNILLQDPFAVLKEHPEKLTHTIENPLRTECLQFSPCGDYLALGCANGALVIYDMDTFRPICVPGNMLGAHVRPITSIAWSPDGRLLLTSSRDWSIKLWDLSKPSKPLKEIRFDSPIWGCQWLDAKRRLCVATIFEESDAYVIDFSNDPVASLLSKSDEKQLSSTPDHGYVLVCTVHTKHPNIIIVGTSKGWLDFYKFHSLYQTECIHSLKITSSNIKHLIVSQNGERLAINCSDRTIRQYEISIDDENSAVELTLEHKYQDVINKLQWNCILFSNNTAEYLVASTHGSSAHELYIWETTSGTLVRVLEGAEEELIDINWDFYSMSIVSNGFESGNVYVWSVVIPPKWSALAPDFEEVEENVDYLEKEDEFDEVDEAEQQQGLEQEEEIAIDLRTREQYDVRGNNLLVERFTIPTDYTRIIKMQSS
B5: Swd3 (protein, UniProt P38123 1-315)
chain: MFQFVTPVGTQNGLKATCAKISPDGQFLAITQGLNILIYDINRRTVSQTLVTSHARPFSELCWSPDGQCIATASDDFSVEIIHLSYGLLHTFIGHTAPVISLTFNRKGNLLFTSSMDESIKIWDTLNGSLMKTISAHSEAVVSVDVPMNDSSILSSGSYDGLIRIFDAETGHCLKTLTYDKDWKRENGVVPISQVKFSENARYLLVKSLDGVVKIWDCIGGCVVRTFQVQPLEKGVLHHSCGMDFLNPEDGSTPLVISGYENGDIYCWNSDTKSLLQLLDGSLYHHSSPVMSIHCFGNIMCSLALNGDCCLWRWV
B6: Bre2 (protein, UniProt P43132 1-505)
chain: MKLGIIPYQEGTDIVYKNALQGQQEGKRPNLPQMEATHQIKSSVQGTSYEFVRTEDIPLNRRHFVYRPCSANPFFTILGYGCTEYPFDHSGMSVMDRSEGLSISRDGNDLVSVPDQYGWRTARSDVCIKEGMTYWEVEVIRGGNKKFADGVNNKENADDSVDEVQSGIYEKMHKQVNDTPHLRFGVCRREASLEAPVGFDVYGYGIRDISLESIHEGKLNCVLENGSPLKEGDKIGFLLSLPSIHTQIKQAKEFTKRRIFALNSHMDTMNEPWREDAENGPSRKKLKQETTNKEFQRALLEDIEYNDVVRDQIAIRYKNQLFFEATDYVKTTKPEYYSSDKRERQDYYQLEDSYLAIFQNGKYLGKAFENLKPLLPPFSELQYNEKFYLGYWQHGEARDESNDKNTTSAKKKKQQQKKKKGLILRNKYVNNNKLGYYPTISCFNGGTARIISEEDKLEYLDQIRSAYCVDGNSKVNTLDTLYKEQIAEDIVWDIIDELEQIALQQ
B7: Shg1 (protein, UniProt P38337 1-142)
chain: MAYNQEDSKRLSDKYKKEGHFDKLKREILSNPWNNTEENSESFEQALRKRVASTVKEMVNEDEELIFKNRGLTSALIESQLVKDNYLKLGSKMEGDNGDGEKKFDLDVYVRSKLQDPKLLEMIKGQLQETLNSYEEEANGST

target: T1, FLAG-Set1 (full-length) (S. cerevisiae) (UniProt P38827); assay: co-IP; FLAG-Set1 (full-length or fragment) co-expressed with untagged Set1C subunits in Sf9 cells by baculovirus co-infection; complexes affinity purified on M2 (anti-FLAG) agarose; SDS-PAGE and Coomassie blue staining
T1 sequence: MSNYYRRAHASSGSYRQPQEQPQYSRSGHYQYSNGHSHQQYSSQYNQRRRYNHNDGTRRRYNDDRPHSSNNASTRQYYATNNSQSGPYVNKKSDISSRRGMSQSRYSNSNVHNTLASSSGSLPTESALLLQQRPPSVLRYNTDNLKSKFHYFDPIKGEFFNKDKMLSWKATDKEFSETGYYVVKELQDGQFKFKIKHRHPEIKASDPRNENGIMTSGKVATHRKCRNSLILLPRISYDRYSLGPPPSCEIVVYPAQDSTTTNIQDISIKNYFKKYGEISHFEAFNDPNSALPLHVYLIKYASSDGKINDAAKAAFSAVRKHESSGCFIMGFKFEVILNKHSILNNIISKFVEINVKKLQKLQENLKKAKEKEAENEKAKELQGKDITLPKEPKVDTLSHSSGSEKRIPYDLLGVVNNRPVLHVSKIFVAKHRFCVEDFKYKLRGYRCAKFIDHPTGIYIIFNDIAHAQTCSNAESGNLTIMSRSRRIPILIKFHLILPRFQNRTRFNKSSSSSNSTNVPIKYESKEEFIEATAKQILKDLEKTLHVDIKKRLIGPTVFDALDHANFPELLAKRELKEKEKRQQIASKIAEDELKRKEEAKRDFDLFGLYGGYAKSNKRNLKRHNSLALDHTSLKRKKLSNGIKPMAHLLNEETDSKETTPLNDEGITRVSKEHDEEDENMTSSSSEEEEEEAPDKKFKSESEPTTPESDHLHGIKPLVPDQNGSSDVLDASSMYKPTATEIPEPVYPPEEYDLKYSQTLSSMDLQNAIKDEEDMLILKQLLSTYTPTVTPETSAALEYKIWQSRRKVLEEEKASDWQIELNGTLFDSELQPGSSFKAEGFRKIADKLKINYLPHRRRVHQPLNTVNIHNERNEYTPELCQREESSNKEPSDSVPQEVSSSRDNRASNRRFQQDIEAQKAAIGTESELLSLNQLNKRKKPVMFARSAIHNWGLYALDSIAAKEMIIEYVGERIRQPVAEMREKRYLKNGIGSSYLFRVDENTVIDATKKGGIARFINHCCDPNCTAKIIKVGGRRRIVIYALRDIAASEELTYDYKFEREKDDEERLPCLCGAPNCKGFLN

binding, binds:
B1
B2
B3
B4
B5
B6
B7

target: T2, FLAG-Set1 C762 fragment (S. cerevisiae) (UniProt P38827); assay: as above
T2 sequence: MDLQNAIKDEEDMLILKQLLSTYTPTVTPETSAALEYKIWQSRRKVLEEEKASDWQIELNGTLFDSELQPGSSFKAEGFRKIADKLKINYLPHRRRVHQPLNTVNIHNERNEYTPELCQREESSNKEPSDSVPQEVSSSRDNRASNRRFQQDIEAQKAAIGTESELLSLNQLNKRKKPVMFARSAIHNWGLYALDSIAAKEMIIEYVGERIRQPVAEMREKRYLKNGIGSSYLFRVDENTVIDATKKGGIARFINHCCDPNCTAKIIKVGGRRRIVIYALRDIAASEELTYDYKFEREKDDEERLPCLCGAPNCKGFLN

binding, binds:
B1
B2
B4
B5
B6
